In experiment [1] the test system is MILI (PIWIL2) piRISC loaded with piRNA #1 (26 nt). The experiment is described as follows: pre-steady-state target cleavage rate (min^-1); MIWI and MILI are mouse PIWI proteins and EfPiwi is from a freshwater sponge; tags in brackets are library labels; higher = faster piRNA-guided slicing of the target. The conditions noted are these: guide: piRNA #1 5'p-UGAGGUAGUAGGUUGUAUAGUAUCCA; auxiliary factor: 500 nM mouse GTSF1. A digest of the protocol: (§1)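 The pre-steady-state cleavage rate was obtained by Cleave-'n-Seq with a burst-and-steady-state fit. A transcribed, DNA-blocked target RNA library (0.1 nM) was mixed with 1 nM active affinity-purified piRISC carrying one synthetic guide, with or without 500 nM GTSF1 partner protein, in HEPES–potassium acetate buffer at 33 °C for 0–8 or 0–960 min. Uncleaved targets were sequenced and normalised to depth and to weakly complementary targets, with three trials pooled and k3 capped at 0.0001 min^-1.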

In experiment [2] the test system is MIWI (PIWIL1) piRISC loaded with piRNA #1 (30 nt). The experiment is described as above. The conditions noted are these: guide: piRNA #1 5'p-UGAGGUAGUAGGUUGUAUAGUAUCCAGAGG; auxiliary factor: 500 nM mouse GTSF1. The method, boiled down: as §1

± gives the standard deviation. This is a selection; strong and weak results do not stand in their true shares. Many entries were measured with a wide error.

Take GGAGACCUAUGUAAAGAACCUACUACCUCA: the “pre-steady-state target cleavage rate” value in experiment [1] was 0.00135 ± 0.0036; in experiment [2] it was 0.000227 ± 0.0089.
In the same order, the values of GGAGACCUAUGAUUACAACCUACUAUCCUCA are 0.00664 ± 0.0027 and 0.00234 ± 0.0033.
For the sequence GGAGACCUAUGAAAUCAACCUACUACCUCA, the entries for the “pre-steady-state target cleavage rate” value in experiment [1] and in experiment [2] were 0.0014 ± 0.0038 and 0.000173 ± 0.018, respectively.
In the same order, the values of GGAGACCUAUGUAUACAACCUACAUGCUCA are 0.00215 ± 0.0045 and 0.000263 ± 0.0091.
As to GGAGACCUAUGAUUUCAACCUACUACCUCA, the “pre-steady-state target cleavage rate” value in experiment [1] turned out to be 0.00244 ± 0.0025; in experiment [2] it was 0.000373 ± 0.0042.
In the same order, the values of GGAGACCUAUGAUAUGUAUCUACUACCUCA are 0.000124 ± 0.018 and 0.000321 ± 0.013.
Take GGAGACCUAUGAUUACAACUACUACCUCA: the “pre-steady-state target cleavage rate” value turned out to be 0.000894 ± 0.0058 in experiment [1] and 0.000545 ± 0.0076 in experiment [2].
On to GGAGACCUAUCUAUUCUACCUACUACCUCA, for which the “pre-steady-state target cleavage rate” value in experiment [1] stood at 0.0569 ± 0.0086; in experiment [2], 0.00173 ± 0.0023.
As to GGAGACCUAUGAAUACAACCAACUACCUGA, the “pre-steady-state target cleavage rate” value in experiment [1] turned out to be 0.00177 ± 0.0038; in experiment [2], 0.000415 ± 0.0073.
In the same order, the values of GGAGACCUAUGAUAUCAACGUUCUACCUCA are 0.00048 ± 0.0088 and 0.000609 ± 0.0077.
In the same order, the values of GGAGACCUAUGAUAUGUUGGUACCACCUCA are 0.000482 ± 0.016 and 0.000572 ± 0.01.
Consider GGAGUGCAUACUAUACAACGUACUACCUCA, for which the “pre-steady-state target cleavage rate” value in experiment [1] came out at 0.0301 ± 0.0044; in experiment [2], 0.714 ± 0.039.
As to GGAGACCUAUCUAUACAACCUAUACCUCA, the “pre-steady-state target cleavage rate” value in experiment [1] stood at 0.00215 ± 0.0035; in experiment [2] it was 0.000558 ± 0.0078.
Taken in the same sequence, the figures for GGAGACCUAUCUAUACAACCCUACUACCUCA were 0.0014 ± 0.0054 and 0.000245 ± 0.0088.
GGAGACGAUACUAUUCAUCCUACUACCUCA: the “pre-steady-state target cleavage rate” value in experiment [1] is 0.264 ± 0.021; in experiment [2], 1.09 ± 0.061.
In the same order, the values of GGAGACCUAUGAUUACAUCCAACUACCUCA are 0.00328 ± 0.003 and 0.000295 ± 0.0066.
In the same order, the values of GGAGACCUAACUUAUACAACCUACUACCUCA are 0.0771 ± 0.019 and 0.23 ± 0.041.
As for GGAGAGGAUACUAUACAACCUAGUUCCUCA, the “pre-steady-state target cleavage rate” value in experiment [1] was 0.000425 ± 0.011; in experiment [2] it was 0.000949 ± 0.0053.
In the same order, the values of GGAGACCUAUGAUAUCAACCUACUACACUCA are 0.00216 ± 0.0036 and 0.000964 ± 0.0058.
Regarding GGAGACCUAUGAUAACAUCCUACUUCCUCA, the “pre-steady-state target cleavage rate” value in experiment [1] is 0.00421 ± 0.0027; in experiment [2] it was 0.00022 ± 0.011.
In the same order, the values of GGAGACCUAUGAAUACAACCUACUCCUCA are 0.000326 ± 0.017 and 0.000426 ± 0.011.
For GGAGACCUAUGUAUACAACCUUGUACCUCA, the “pre-steady-state target cleavage rate” value was found to be 0.000978 ± 0.0048 in experiment [1] and 0.000472 ± 0.0049 in experiment [2].
In the same order, the values of GGAGACCUAUGAUAUGUUCACUACUACCUCA are 0.000483 ± 0.014 and 0.000662 ± 0.011.
For GGAGACCUAUGAUAUGUAGCUAGUACCUCA, the “pre-steady-state target cleavage rate” value was 0.000126 ± 0.02 in experiment [1] and 0.000322 ± 0.011 in experiment [2].
As for GGAGACCUAUGAUAACAACCUACUACCUA, the results for the “pre-steady-state target cleavage rate” value in experiment [1] and in experiment [2] were 0.00181 ± 0.0038 and 0.000315 ± 0.0082, respectively.
Taken in the same sequence, the figures for GGAGACCUAUGAUUACAACCUACUACGAGA were 0.0012 ± 0.0049 and 0.000564 ± 0.012.
In the same order, the values of “GGAGACCUAUGAUAUCAACCUUGAUGGAGA [g10:g15:cont:t1A]” are 0.000374 ± 0.011 and 0.000135 ± 0.01.
On to GGAGACCUAUGAUAUGUUGGUACUCACCUCA, for which the “pre-steady-state target cleavage rate” value was 0.000209 ± 0.024 in experiment [1] and 0.000265 ± 0.014 in experiment [2].
Take GGAGACCUAUGAAUUCAACGUACUACCUCA: the “pre-steady-state target cleavage rate” value amounted to 0.00125 ± 0.0038 in experiment [1] and 0.000173 ± 0.012 in experiment [2].
With GGAGACCUAUGUAUACAACCAUCUACCUCA, the “pre-steady-state target cleavage rate” value in experiment [1] stood at 0.00244 ± 0.0032; in experiment [2] it was 0.000293 ± 0.0072.
